Assay results as given in US20250262192A1, “PROGNOSTIC PATHWAYS FOR HIGH RISK SEPSIS PATIENTS” (KONINKLIJKE PHILIPS N.V., priority 2021, published 2025).
At least one compound was matched to its structure with a doubt left.

Tested on: AR cellular signaling pathway
Assay: THP-1 cells cultured 24 hrs with LPS, then DHT or AR inhibitor (FIG. 35, Table 7); pathway analysis
Type: cell-based
Experimental: FIG. 35 Schematic overview of AR inhibitor experiment. Depicts the experimental setup to determine if AR inhibitors can be used to mitigate the effect of LPS on monocytes (THP-1 cells). […] In a parallel experiment, THP-1 cells are first cultured for 24 hours with LPS, after which the medium is changed and the cells are cultured with one of ARCC-4, ARD-266, A-458 and bicalutamide.
FIG. 35 describes the experimental set-up used. […] In a parallel experiment, THP-1 cells are first cultured for 24 hours with LPS, after which the medium is changed and the cells are cultured with one of ARCC-4, ARD-266, A-458 and bicalutamide.
All experimental conditions were subjected to cellular signaling pathways analysis.

CC(O)(CS(=O)(=O)c1ccc(F)cc1)C(=O)Nc1ccc(C#N)c(C(F)(F)F)c1 (stereo not shown) [Bicalutamide]
Testosterone induced AR pathway activity with inhibitor: inhibited
